Experimental data as given in patent US10092648B2 (Zealand Pharma A/S, priority 2006, dated 2018).

experiment: general procedure: Fmoc solid-phase peptide synthesis; TentaGel S RAM; preformed Fmoc-protected HOBt esters (3 eq.); conditions: whole synthesis, scale 0.2 mmol/g, 1 g, trifluoroacetate salt

With H-HGEGSFSDELATILEALAAADFIAWLIATKITD-NH2 as the substance, how does the isolated mass read?
Its isolated mass is 413 mg.

With H-HGEGSFSDELATILEALAASDFISWLISTKITD-NH2 as the substance, how does the isolated mass read?
The isolated mass was 132 mg.

same assay, conditions: whole synthesis, scale of the general procedure 1 g resin, 0.22-0.31 mmol/g, trifluoroacetate salt; run 2

For H-HGEGSFSDELATILEALAAADFIAWLIATKITD-NH2, which “final purity (method not given)” value is on record?
Its value is “better than 93%”.

With H-HGEGSFSDELATILEALAASDFISWLISTKITD-NH2 as the substance, how does the “final purity (method not given)” value read?
Its value is “better than 91%”.

experiment: general procedure: Fmoc solid-phase peptide synthesis; TentaGel S RAM-Lys(Boc)-Fmoc; preformed Fmoc-protected HOBt esters (3 eq.); conditions: whole synthesis, scale 0.24 mmol/g, 1 g, trifluoroacetate salt

For “H-HGEGSFSDELATILEALAASDFISWLISTKITDKKKKKK-NH2”, which “final purity (method not given)” value is on record?
Its value is “better than 90%”.

With “H-HGEGSFSDELATILEALAAADFIAWLIATKITDKKKKKK-NH2” as the substance, how does the “final purity (method not given)” value read?
Its value is “better than 90%”.

experiment: general procedure: Fmoc solid-phase peptide synthesis; TentaGel S RAM, TentaGel S RAM-Lys(Boc)Fmoc, TentaGel S PHB, TentaGel S PHB Lys(Boc)Fmoc (0.22-0.31 mmol/g); preformed Fmoc-protected HOBt esters (3 eq.); conditions: purification step, acetate salt

With H-HGEGSFSDELATILEALAAADFIAWLIATKITD-NH2 as the substance, how does the “final purity (method not given)” value read?
The value was “better than 90%”.

same assay, conditions: purification step, chloride salt

For H-HGEGSFSDELATILEALAAADFIAWLIATKITD-NH2, which “final purity (method not given)” value is on record?
Its value is “better than 90%”.

same assay, conditions: whole synthesis, scale of the general procedure 1 g resin, 0.22-0.31 mmol/g, trifluoroacetate salt

With “H-HGEGSFSDELSTILESLAASDFISWLISTKITDKKKKKK-NH2” as the substance, how does the “final purity (method not given)” value read?
The value was 96%.

Which “final purity (method not given)” value does the source give for H-HGEGSFSDELATILEALAASDFIAWLIATKITD-NH2 here?
The value was 98%.

Which “final purity (method not given)” value does the source give for H-HGEGSFSDELATILEALAAADFISWLIATKITD-NH2 here?
The value was 97%.

With “H-HGEGSFSDELATILEALAASDFISWLISTKITDKKKKKK-NH2” as the substance, how does the “final purity (method not given)” value read?
Its value is 97%.

With “H-HGEGSFSDELATILESLAASDFISWLISTKITDKKKKKK-NH2” as the substance, how does the “final purity (method not given)” value read?
The value was 89%.

Which “final purity (method not given)” value does the source give for “H-HGEGSFSDELKTILEKLAAKDFIKWLIKTKITDKKKKKK-NH2” here?
Its value is 96%.

For H-HGEGSFSDELSTILEALAASDFISWLISTKITD-NH2, which “final purity (method not given)” value is on record?
Its value is 89%.

For “H-HGEGSFSDELATILESLAAADFIAWLIATKITDKKKKKK-NH2”, which “final purity (method not given)” value is on record?
Its value is 98%.

For H-HGEGSFSDELATILESLAASDFISWLISTKITD-NH2, which “final purity (method not given)” value is on record?
The value was 80%.

With “H-HGEGSFSDELLTILELLAALDFIAWLIATKITDKKKKKK-NH2” as the substance, how does the “final purity (method not given)” value read?
The value was 88%.

For “H-HGEGSFSDELLTILELLAAADFIAWLIATKITDKKKKKK-NH2”, which “final purity (method not given)” value is on record?
The value was 88%.

Which “final purity (method not given)” value does the source give for H-HGEGSFSDELLTILELLAASDFISWLISTKITD-NH2 here?
Its value is 84%.

Which “final purity (method not given)” value does the source give for “H-HGEGSFSDELNTILESLAASDFISWLISTKITDKKKKKK-NH2” here?
Its value is 94%.

For H-HGEGSFSDELATILEALAAADFIAWLISTKITD-NH2, which “final purity (method not given)” value is on record?
Its value is 92%.

With H-HGEGSFSDELFTILEFLAASDFISWLISTKITD-NH2 as the substance, how does the “final purity (method not given)” value read?
Its value is 75%.

For H-HGEGSFSDELNTILESLAASDFISWLISTKITD-NH2, which “final purity (method not given)” value is on record?
The value was 74%.

With “H-HGEGSFSDELATILEALAAADFIAWLISTKITDKKKKKK-NH2” as the substance, how does the “final purity (method not given)” value read?
Its value is 98%.

Which “final purity (method not given)” value does the source give for “H-HGEGSFSDELKTILESLAAADFIEWLIQTKITDKKKKKK-NH2” here?
The value was 96%.

With H-HGEGSFSDELSTILEALAAADFIAWLIATKITD-NH2 as the substance, how does the “final purity (method not given)” value read?
Its value is 94%.

For “H-HGEGSFSDELETILEELAAEDFIEWLIETKITDKKKKKK-NH2”, which “final purity (method not given)” value is on record?
Its value is 93%.

With “H-HGEGSFSDELATILEALAAADFISWLIATKITDKKKKKK-NH2” as the substance, how does the “final purity (method not given)” value read?
The value was 93%.

For “H-HGEGSFSDELATILEALAAADFIAWLIATKITDKKKKKK-NH2”, which “final purity (method not given)” value is on record?
The value was 97%.

With H-HGEGSFSDELATILESLAAADFIAWLIATKITD-NH2 as the substance, how does the “final purity (method not given)” value read?
Its value is 91%.

Which “final purity (method not given)” value does the source give for “H-HGEGSFSDELSTILEALAASDFISWLISTKITDKKKKKK-NH2” here?
Its value is 95%.

Which “final purity (method not given)” value does the source give for H-HGEGSFSSELSTILDALAARDFIAWLIATKITDK-OH here?
The value was 88%.

With “H-HGEGSFSDELLTILELLAASDFISWLISTKITDKKKKKK-NH2” as the substance, how does the “final purity (method not given)” value read?
Its value is 90%.

With “H-HGEGSFSDELATILESLAAADFISWLIATKITDKKKKKK-NH2” as the substance, how does the “final purity (method not given)” value read?
Its value is 95%.

Which “final purity (method not given)” value does the source give for H-HGEGSFSDELETILEELAAEDFIEWLIETKITD-NH2 here?
Its value is 88%.

For H-HGEGSFSDELSTILESLAAADFIAWLIATKITD-NH2, which “final purity (method not given)” value is on record?
Its value is 96%.

For “H-HGEGSFSDELSTILEALAAADFIAWLIATKITDKKKKKK-NH2”, which “final purity (method not given)” value is on record?
Its value is 92%.

With “H-HGEGSFSDELATI LEALAASDFIAWLIATKITDKKKKKK-NH2” as the substance, how does the “final purity (method not given)” value read?
The value was 93%.

For H-HGEGSFSDELKTILESLAAADFIEWLIQTKITD-NH2, which “final purity (method not given)” value is on record?
Its value is 94%.

For “H-HGEGSFSDELFTILEFLAASDFISWLISTKITDKKKKKK-NH2”, which “final purity (method not given)” value is on record?
Its value is 93%.

For “H-HGEGSFSDELLTILELLAALDFILWLILTKITDKKKKKK-NH2”, which “final purity (method not given)” value is on record?
Its value is 78%.

Which “final purity (method not given)” value does the source give for “H-HGEGSFSDELSTILESLAAADFIAWLIATKITDKKKKKK-NH2” here?
Its value is 93%.

Which “final purity (method not given)” value does the source give for H-HGEGSFSDELATILESLAAADFISWLIATKITD-NH2 here?
Its value is 91%.

For “H-HGEGSFSDELNTILESLAARDFISWLISTKITDKKKKKK-NH2”, which “final purity (method not given)” value is on record?
Its value is 96%.

Which “final purity (method not given)” value does the source give for H-HGEGSFSDELSTILESLAASDFISWLISTKITD-NH2 here?
Its value is 62%.

same assay, conditions: whole synthesis, scale of the general procedure 1 g resin, 0.22-0.31 mmol/g, trifluoroacetate salt; run 1

With H-HGEGSFSDELATILEALAAADFIAWLIATKITD-NH2 as the substance, how does the “final purity (method not given)” value read?
Its value is 93%.

For H-HGEGSFSDELATILEALAASDFISWLISTKITD-NH2, which “final purity (method not given)” value is on record?
Its value is 91%.
